Results published in the supplement of paper PMC10849652.
The other results are listed elsewhere or left out. Residues, ends and D or L forms follow the SMILES beside them. *: point of attachment. Cbz = O=C(OCc1ccccc1)*

The chains behind the UniProt entries cited, without tags or fusion partners. Where a name states a change or a piece, a line headed by the entry shows the natural chain unless it says otherwise.
UniProt Q15067: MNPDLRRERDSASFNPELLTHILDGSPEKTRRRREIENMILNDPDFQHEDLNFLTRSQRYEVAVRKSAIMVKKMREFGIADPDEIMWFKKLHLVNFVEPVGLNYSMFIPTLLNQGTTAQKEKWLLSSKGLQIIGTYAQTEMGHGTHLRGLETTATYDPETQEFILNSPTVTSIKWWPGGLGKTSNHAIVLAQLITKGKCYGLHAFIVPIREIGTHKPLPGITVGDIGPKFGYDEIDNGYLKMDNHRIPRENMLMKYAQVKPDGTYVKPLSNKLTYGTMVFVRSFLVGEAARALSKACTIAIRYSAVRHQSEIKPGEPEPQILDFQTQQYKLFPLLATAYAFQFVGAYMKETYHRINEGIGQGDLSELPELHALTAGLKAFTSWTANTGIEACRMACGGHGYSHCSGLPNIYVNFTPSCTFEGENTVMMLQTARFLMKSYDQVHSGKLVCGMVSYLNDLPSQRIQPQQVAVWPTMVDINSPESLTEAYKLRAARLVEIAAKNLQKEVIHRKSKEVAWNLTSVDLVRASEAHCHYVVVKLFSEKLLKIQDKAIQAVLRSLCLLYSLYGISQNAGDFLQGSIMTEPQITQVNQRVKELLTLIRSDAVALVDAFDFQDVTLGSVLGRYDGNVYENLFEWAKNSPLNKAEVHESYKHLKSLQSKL
UniProt P24752: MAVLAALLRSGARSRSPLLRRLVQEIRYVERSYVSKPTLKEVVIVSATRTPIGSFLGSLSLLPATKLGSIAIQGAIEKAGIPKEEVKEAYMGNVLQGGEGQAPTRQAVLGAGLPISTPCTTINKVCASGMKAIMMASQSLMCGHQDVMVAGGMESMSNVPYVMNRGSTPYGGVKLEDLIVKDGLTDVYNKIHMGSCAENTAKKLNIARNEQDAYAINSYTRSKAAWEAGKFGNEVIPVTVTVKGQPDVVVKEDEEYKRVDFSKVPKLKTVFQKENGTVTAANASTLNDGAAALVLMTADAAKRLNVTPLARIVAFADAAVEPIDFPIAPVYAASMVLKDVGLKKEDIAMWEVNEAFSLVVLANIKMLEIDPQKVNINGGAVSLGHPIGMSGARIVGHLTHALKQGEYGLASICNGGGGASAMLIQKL
UniProt Q7L211: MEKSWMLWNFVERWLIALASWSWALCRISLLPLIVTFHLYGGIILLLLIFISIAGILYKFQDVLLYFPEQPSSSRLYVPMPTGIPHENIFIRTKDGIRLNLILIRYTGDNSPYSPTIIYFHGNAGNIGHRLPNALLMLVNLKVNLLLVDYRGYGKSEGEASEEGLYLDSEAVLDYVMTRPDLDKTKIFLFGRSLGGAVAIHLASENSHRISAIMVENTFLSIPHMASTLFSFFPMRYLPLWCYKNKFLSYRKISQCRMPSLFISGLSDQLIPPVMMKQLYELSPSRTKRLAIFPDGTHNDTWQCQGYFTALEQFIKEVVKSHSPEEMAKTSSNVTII
UniProt Q9UKU7: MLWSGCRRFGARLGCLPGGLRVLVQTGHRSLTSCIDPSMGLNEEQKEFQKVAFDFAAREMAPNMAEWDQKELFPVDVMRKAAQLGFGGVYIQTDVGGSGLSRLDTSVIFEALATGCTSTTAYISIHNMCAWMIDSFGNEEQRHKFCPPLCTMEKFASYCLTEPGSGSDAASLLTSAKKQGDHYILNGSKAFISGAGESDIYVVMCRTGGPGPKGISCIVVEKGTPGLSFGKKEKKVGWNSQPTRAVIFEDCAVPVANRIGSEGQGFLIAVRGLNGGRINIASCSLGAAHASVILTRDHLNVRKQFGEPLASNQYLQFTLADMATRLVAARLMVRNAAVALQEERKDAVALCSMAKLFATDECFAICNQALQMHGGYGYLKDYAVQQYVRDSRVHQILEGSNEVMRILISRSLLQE
UniProt Q9NZ32, whole entry, looked up: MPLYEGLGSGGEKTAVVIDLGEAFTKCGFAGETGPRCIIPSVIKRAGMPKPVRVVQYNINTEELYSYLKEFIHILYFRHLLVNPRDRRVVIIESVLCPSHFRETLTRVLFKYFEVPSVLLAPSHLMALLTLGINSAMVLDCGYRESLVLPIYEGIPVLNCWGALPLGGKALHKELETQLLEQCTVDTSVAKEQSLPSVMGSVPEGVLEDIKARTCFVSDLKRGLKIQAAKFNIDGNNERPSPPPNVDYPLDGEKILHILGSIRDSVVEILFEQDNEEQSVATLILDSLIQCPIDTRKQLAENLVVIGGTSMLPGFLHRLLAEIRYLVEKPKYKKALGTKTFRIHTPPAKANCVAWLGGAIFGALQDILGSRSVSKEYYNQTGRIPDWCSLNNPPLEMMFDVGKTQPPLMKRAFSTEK
UniProt P00813: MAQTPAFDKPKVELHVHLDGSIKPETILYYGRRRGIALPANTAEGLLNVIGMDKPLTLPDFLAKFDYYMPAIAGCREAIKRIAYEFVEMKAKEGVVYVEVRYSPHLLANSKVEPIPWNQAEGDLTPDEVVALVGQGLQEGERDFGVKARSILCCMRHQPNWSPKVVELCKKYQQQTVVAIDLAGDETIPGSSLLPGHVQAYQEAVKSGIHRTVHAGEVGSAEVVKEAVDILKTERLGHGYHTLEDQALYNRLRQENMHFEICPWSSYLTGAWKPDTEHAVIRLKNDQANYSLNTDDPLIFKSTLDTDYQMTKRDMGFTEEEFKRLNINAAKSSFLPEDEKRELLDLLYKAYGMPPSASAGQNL
UniProt Q03154: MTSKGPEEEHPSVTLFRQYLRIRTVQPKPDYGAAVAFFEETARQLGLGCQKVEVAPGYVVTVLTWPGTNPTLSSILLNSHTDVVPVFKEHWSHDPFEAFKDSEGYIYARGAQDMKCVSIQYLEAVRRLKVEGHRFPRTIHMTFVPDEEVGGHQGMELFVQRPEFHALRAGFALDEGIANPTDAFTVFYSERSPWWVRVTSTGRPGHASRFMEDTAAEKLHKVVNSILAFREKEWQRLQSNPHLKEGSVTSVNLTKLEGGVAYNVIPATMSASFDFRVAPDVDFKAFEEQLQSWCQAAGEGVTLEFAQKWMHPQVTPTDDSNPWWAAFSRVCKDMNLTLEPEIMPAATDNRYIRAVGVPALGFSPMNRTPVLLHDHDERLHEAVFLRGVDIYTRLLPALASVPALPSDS
UniProt Q9GZN1, whole entry, looked up: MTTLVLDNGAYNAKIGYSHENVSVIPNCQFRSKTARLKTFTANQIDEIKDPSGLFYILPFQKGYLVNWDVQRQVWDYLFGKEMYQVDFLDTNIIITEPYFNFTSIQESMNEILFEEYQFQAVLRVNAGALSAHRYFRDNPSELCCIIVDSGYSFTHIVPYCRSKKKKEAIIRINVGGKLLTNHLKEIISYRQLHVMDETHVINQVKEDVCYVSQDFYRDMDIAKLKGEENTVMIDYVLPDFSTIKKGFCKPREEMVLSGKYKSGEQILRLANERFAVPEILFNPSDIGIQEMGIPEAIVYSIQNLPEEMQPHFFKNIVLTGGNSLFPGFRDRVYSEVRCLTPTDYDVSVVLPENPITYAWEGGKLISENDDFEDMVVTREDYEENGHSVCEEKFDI
UniProt O75027: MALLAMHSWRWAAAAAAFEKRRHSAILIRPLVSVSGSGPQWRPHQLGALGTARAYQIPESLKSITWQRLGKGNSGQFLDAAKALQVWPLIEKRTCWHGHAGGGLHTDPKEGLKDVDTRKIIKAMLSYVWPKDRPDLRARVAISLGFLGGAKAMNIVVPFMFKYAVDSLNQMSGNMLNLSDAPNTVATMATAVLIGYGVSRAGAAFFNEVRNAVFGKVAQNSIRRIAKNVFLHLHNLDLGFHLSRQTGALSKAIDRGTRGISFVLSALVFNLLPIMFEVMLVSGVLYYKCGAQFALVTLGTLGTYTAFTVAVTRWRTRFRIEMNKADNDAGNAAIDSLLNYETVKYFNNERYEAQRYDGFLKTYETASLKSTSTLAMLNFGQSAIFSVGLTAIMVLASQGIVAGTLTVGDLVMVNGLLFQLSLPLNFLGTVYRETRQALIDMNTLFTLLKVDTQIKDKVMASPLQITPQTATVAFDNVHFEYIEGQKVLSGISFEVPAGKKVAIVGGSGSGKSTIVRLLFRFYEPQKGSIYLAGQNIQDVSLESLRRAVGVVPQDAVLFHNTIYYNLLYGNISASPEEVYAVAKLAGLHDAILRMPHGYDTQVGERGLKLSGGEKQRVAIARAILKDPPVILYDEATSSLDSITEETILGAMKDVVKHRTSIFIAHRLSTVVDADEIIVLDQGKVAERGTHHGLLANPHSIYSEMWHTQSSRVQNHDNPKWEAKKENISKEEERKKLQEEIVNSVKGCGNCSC
UniProt P33527: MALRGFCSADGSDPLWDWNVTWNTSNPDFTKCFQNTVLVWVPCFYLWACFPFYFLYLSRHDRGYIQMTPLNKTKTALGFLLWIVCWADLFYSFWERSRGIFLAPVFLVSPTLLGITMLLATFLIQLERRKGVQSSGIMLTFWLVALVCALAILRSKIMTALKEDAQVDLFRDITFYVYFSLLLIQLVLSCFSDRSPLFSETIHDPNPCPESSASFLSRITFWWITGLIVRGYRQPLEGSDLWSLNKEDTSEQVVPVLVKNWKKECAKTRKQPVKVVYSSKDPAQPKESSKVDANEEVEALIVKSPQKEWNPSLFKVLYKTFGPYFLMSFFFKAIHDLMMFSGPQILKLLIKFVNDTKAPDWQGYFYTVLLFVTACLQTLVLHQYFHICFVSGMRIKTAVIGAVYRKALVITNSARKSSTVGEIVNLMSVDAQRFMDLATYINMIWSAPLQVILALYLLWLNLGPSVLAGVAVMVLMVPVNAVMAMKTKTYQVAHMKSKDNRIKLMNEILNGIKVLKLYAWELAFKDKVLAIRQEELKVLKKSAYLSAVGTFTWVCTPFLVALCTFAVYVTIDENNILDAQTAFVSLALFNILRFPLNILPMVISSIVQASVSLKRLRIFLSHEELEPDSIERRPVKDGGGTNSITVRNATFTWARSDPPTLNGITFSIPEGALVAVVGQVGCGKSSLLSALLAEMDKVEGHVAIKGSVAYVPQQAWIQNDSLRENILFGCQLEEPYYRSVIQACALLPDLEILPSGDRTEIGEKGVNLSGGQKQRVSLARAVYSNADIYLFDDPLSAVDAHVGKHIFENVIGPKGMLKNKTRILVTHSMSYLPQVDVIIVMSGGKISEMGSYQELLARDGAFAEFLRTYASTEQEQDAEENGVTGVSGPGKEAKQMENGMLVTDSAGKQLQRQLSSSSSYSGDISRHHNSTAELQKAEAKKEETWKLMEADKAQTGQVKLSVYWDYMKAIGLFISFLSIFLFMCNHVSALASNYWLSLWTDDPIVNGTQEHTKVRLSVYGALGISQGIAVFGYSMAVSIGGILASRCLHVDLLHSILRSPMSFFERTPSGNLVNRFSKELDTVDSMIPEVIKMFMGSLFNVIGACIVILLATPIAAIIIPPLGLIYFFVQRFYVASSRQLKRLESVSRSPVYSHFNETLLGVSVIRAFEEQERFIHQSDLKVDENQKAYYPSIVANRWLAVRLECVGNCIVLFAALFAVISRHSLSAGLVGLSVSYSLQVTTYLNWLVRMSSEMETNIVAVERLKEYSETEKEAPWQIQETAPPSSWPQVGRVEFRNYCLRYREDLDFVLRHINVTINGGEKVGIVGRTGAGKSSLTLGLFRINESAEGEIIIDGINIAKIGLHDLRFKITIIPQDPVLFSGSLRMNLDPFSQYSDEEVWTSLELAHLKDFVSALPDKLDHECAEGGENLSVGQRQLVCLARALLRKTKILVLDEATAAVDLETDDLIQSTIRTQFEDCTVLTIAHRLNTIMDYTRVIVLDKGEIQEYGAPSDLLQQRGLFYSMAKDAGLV
UniProt Q9UG63: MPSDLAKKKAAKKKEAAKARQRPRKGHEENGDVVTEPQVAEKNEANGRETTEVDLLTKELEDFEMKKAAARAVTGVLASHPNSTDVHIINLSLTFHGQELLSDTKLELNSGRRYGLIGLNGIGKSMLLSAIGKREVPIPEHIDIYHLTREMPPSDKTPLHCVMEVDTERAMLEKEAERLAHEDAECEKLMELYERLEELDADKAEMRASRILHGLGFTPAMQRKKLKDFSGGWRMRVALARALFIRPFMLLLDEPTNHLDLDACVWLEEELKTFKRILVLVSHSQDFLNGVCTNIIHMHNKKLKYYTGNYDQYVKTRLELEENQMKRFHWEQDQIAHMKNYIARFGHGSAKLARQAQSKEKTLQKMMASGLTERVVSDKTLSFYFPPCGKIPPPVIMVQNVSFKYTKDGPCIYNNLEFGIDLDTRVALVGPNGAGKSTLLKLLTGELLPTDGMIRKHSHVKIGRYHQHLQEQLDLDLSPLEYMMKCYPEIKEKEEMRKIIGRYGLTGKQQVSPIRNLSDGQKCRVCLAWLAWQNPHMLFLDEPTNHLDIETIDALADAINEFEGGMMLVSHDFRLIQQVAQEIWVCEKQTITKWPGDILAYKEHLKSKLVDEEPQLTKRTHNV

What was measured:
Assay in all cases: log2 fold change, soluble protein after heating vs DMSO (PISA); higher = thermal stabilisation; K562 cells, 10 uM, 30 min; active = over 0.2 and 3.5 SD of the protein, either way, in both replicates (recomputed)
erlotinib = compound: C#Cc1cccc(Nc2ncnc3cc(OCCOC)c(OCCOC)cc23)c1 [erlotinib]
Summary of the method: (§1)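 Quantification of soluble protein used TMTpro 16plex LC-MS/MS, with channel sums equalised. Samples were the supernatant after 21,000xg for 90 min of pooled aliquots from K562 cells (2×10^6 cells/mL) treated with 10 μM compound for 30 min, heated for 3 min over 48°C-58°C, and extracted in PBS with 0.5% NP-40 at 4°C. Values, from duplicates, describe thermal stability against control samples on a log2 fold-change scale.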

[1] = compound: C/C(=N\NC(=O)C1=CC(=CC=C1)S(=O)(=O)N2CCOCC2)/C3=C(C=CC(=C3)Cl)O
Summary of the method: as §1

[2] = compound: C1=CC(=C(C=C1Cl)C2=NC3=NC=CN=C3C(=N2)NC4=CC=NC=C4)F
Summary of the method: as §1

[3] = compound: C1=CC(=CC=C1C2=NC3=C(N2)C=C(C=C3)C(=O)N)OC4=CC=C(C=C4)Cl
Summary of the method: as §1

[4] = compound: C1=CC2=C(C=CC(=C2)/C=C\3/C(=O)NC(=NCC4=CC=CS4)S3)N=C1
Summary of the method: as §1

[5] = compound: C1=CC2=NC=CN=C2C=C1/C=C/3\C(=O)NC(=O)S3
Summary of the method: as §1

[6] = compound: C1=CC=C(C=C1)C2=NC(=C(N2)C3=CC=NC=C3)C4=CC(=C(C=C4)Cl)O
Summary of the method: as §1

[7] = compound: C1=CC=C2C(=C1)C3=NNC4=CC=CC(=C43)C2=O
Summary of the method: as §1

[8] = compound: C1CCN(C1)C(=O)NC2=CC=CC(=C2)NC3=NC=C(C(=N3)NCCC4=CN=CN4)Br
Summary of the method: as §1

[9] = compound: C1CN(CCC1(CC2=CC=C(C=C2)Cl)N)C3=NC=NC4=C3C=CN4
Summary of the method: as §1

IRAK-1-4 Inhibitor I = compound: C1COCCN1CCN2C3=CC=CC=C3N=C2NC(=O)C4=CC(=CC=C4)[N+](=O)[O-] [IRAK-1-4 Inhibitor I]
Summary of the method: as §1

ibrutinib = compound: C=CC(=O)N1CCC[C@@H](n2nc(-c3ccc(Oc4ccccc4)cc3)c3c(N)ncnc32)C1 [ibrutinib]
Summary of the method: as §1

[10] = compound: CC(=O)c1cnc2ccc(-c3cc(Cl)c(O)c(Cl)c3)nc2c1N[C@H]1CC[C@H](CN(C)C)CC1
Summary of the method: as §1

ralimetinib = compound: CC(C)(C)Cn1c(N)nc2ccc(-c3[nH]c(C(C)(C)C)nc3-c3ccc(F)cc3)nc21 [ralimetinib]
Summary of the method: as §1

[11] = compound: CC(C)(O)CC(=O)NCCn1ccc2ncnc(Nc3ccc(Oc4cccc(C(F)(F)F)c4)c(Cl)c3)c21
Summary of the method: as §1

[12] = compound: CC(C)C1=C2N=C(C=C(N2N=C1)NCC3=CC=CC=C3)NCCCCCCN
Summary of the method: as §1

[13] = compound: CC(C)C[C@@H](C=O)NC(=O)[C@H](CC(C)C)NC(=O)[C@H](CC(C)C)NC(=O)OCc1ccccc1
Summary of the method: as §1

pinometostat = compound: CC(C)N(C[C@H]1O[C@@H](n2cnc3c(N)ncnc32)[C@H](O)[C@@H]1O)[C@H]1C[C@@H](CCc2nc3cc(C(C)(C)C)ccc3[nH]2)C1 [pinometostat]
Summary of the method: as §1

[14] = compound: CC1=C(C(CC(=O)N1)C2=CC=C(C=C2)C(F)(F)F)C(=O)NC3=C(C=C4C(=C3)C=NN4)F
Summary of the method: as §1

[15] = compound: CC1=C(C2=C(C=C1)C(=O)C3=CC=CC=C3N2CCCN)C
Summary of the method: as §1

Measured: log2 fold change

ACOX1 isoform 2 (UniProt Q15067)
inactive: erlotinib 0.004 | [1] 0.003 | [2] 0.069 | [3] -0.005 | [4] 0 | [5] 0.036 | [6] 0.072 | [7] -0.011 | [8] -0.006 | [9] 0.009 | IRAK-1-4 Inhibitor I 0.026 | ibrutinib 0.008 | [10] 0.011 | ralimetinib 0 | [11] -0.003 | [12] -0.011 | [13] -0.049 | pinometostat -0.033 | [14] -0.03 | [15] 0.056

ACOT9 isoform 4 (UniProt Q9Y305)
inactive: erlotinib -0.07 | [1] -0.033 | [2] -0.078 | [3] 0.15 | [4] 0.056 | [5] -0.084 | [6] 0.015 | [7] 0.083 | [8] -0.022 | [9] 0.013 | IRAK-1-4 Inhibitor I -0.085 | ibrutinib 0.115 | [10] -0.057 | ralimetinib 0.04 | [11] 0.05 | [12] 0.198 | [13] 0.074 | pinometostat 0.094 | [14] -0.068 | [15] 0.088

ACAT1 (UniProt P24752)
inactive: erlotinib -0.059 | [1] -0.016 | [2] 0.053 | [3] -0.047 | [4] 0.015 | [5] -0.058 | [6] -0.049 | [7] -0.011 | [8] -0.04 | [9] -0.007 | IRAK-1-4 Inhibitor I 0.027 | ibrutinib -0.025 | [10] -0.029 | ralimetinib -0.058 | [11] 0.015 | [12] 0.056 | [13] -0.034 | pinometostat -0.039 | [14] 0.014 | [15] -0.015

ABHD13 (UniProt Q7L211)
inactive: erlotinib 0.051 | [1] -0.072 | [2] -0.068 | [3] 0.287 | [4] 0.198 | [5] 0.176 | [6] 0.028 | [7] -0.031 | [8] -0.139 | [9] -0.053 | IRAK-1-4 Inhibitor I -0.001 | ibrutinib -0.135 | [10] -0.026 | ralimetinib -0.279 | [11] -0.106 | [12] -0.255 | [13] 0.008 | pinometostat -0.051 | [14] 0.043 | [15] 0

ACAD8 (UniProt Q9UKU7)
inactive: erlotinib 0.028 | [1] 0.014 | [2] 0.017 | [3] -0.017 | [4] -0.072 | [5] 0.148 | [6] -0.042 | [7] 0.005 | [8] -0.066 | [9] -0.001 | IRAK-1-4 Inhibitor I 0.145 | ibrutinib -0.096 | [10] 0.05 | ralimetinib -0.056 | [11] 0.039 | [12] 0.086 | [13] 0.029 | pinometostat 0.142 | [14] 0.066 | [15] 0.024

ACTR10 (UniProt Q9NZ32)
inactive: erlotinib 0.003 | [1] 0.014 | [2] -0.021 | [3] -0.027 | [4] 0.025 | [5] 0.047 | [6] -0.014 | [7] -0.028 | [8] 0.055 | [9] -0.037 | IRAK-1-4 Inhibitor I -0.031 | ibrutinib -0.004 | [10] 0.034 | ralimetinib 0.011 | [11] 0.04 | [12] 0.049 | [13] 0.009 | pinometostat -0.038 | [14] 0.029 | [15] -0.03

ABI2 (UniProt Q9NYB9)
inactive: erlotinib -0.04 | [1] 0.022 | [2] 0.017 | [3] -0.025 | [4] 0.016 | [5] -0.135 | [6] 0.007 | [7] -0.025 | [8] 0.027 | [9] -0.014 | IRAK-1-4 Inhibitor I 0.018 | ibrutinib 0.043 | [10] -0.11 | ralimetinib -0.043 | [11] -0.008 | [12] -0.069 | [13] -0.01 | pinometostat -0.072 | [14] -0.036 | [15] 0.061

ADA (UniProt P00813)
inactive: erlotinib 0.016 | [1] -0.035 | [2] 0.05 | [3] 0.032 | [4] 0.056 | [5] 0.051 | [6] -0.065 | [7] -0.024 | [8] 0.07 | [9] 0.033 | IRAK-1-4 Inhibitor I 0.032 | ibrutinib 0.025 | [10] 0.024 | ralimetinib 0.02 | [11] -0.019 | [12] 0.061 | [13] 0.033 | pinometostat -0.041 | [14] 0.022 | [15] 0.034

ACTR3 (UniProt P61158)
inactive: erlotinib 0.002 | [1] 0.026 | [2] 0.018 | [3] -0.041 | [4] -0.054 | [5] -0.002 | [6] 0.011 | [7] -0.005 | [8] -0.035 | [9] 0.005 | IRAK-1-4 Inhibitor I 0.038 | ibrutinib 0.008 | [10] 0.014 | ralimetinib -0.014 | [11] -0.004 | [12] 0.101 | [13] 0.011 | pinometostat -0.035 | [14] 0.017 | [15] -0.027

ACY1 (UniProt Q03154)
inactive: erlotinib 0.001 | [1] 0.024 | [2] 0.029 | [3] -0.005 | [4] -0.041 | [5] 0.02 | [6] -0.039 | [7] 0.001 | [8] -0.017 | [9] 0.078 | IRAK-1-4 Inhibitor I 0.059 | ibrutinib 0.003 | [10] 0.019 | ralimetinib -0.022 | [11] -0.007 | [12] 0.046 | [13] -0.032 | pinometostat -0.023 | [14] 0.006 | [15] 0

ACTR6 (UniProt Q9GZN1)
inactive: erlotinib 0.014 | [1] 0.026 | [2] 0.059 | [3] 0.018 | [4] 0.022 | [5] -0.133 | [6] -0.133 | [7] -0.045 | [8] -0.049 | [9] 0.023 | IRAK-1-4 Inhibitor I 0.041 | ibrutinib 0.032 | [10] -0.043 | ralimetinib 0.066 | [11] 0.06 | [12] -0.021 | [13] -0.081 | pinometostat 0.073 | [14] 0.011 | [15] -0.023

Copied from the listing (4 entries):
ACAD8 (UniProt Q9UKU7)
inactive: erlotinib 0.028 | [1] 0.014 | [2] 0.017 | [3] -0.017 | [4] -0.072 | [5] 0.148 | [6] -0.042 | [7] 0.005 | [8] -0.066 | [9] -0.001 | IRAK-1-4 Inhibitor I 0.145 | ibrutinib -0.096 | [10] 0.05 | ralimetinib -0.056 | [11] 0.039 | [12] 0.086 | [13] 0.029 | pinometostat 0.142 | [14] 0.066 | [15] 0.024

ACTR10 (UniProt Q9NZ32)
inactive: erlotinib 0.003 | [1] 0.014 | [2] -0.021 | [3] -0.027 | [4] 0.025 | [5] 0.047 | [6] -0.014 | [7] -0.028 | [8] 0.055 | [9] -0.037 | IRAK-1-4 Inhibitor I -0.031 | ibrutinib -0.004 | [10] 0.034 | ralimetinib 0.011 | [11] 0.04 | [12] 0.049 | [13] 0.009 | pinometostat -0.038 | [14] 0.029 | [15] -0.03

ABI2 (UniProt Q9NYB9)
inactive: erlotinib -0.04 | [1] 0.022 | [2] 0.017 | [3] -0.025 | [4] 0.016 | [5] -0.135 | [6] 0.007 | [7] -0.025 | [8] 0.027 | [9] -0.014 | IRAK-1-4 Inhibitor I 0.018 | ibrutinib 0.043 | [10] -0.11 | ralimetinib -0.043 | [11] -0.008 | [12] -0.069 | [13] -0.01 | pinometostat -0.072 | [14] -0.036 | [15] 0.061

ADA (UniProt P00813)
inactive: erlotinib 0.016 | [1] -0.035 | [2] 0.05 | [3] 0.032 | [4] 0.056 | [5] 0.051 | [6] -0.065 | [7] -0.024 | [8] 0.07 | [9] 0.033 | IRAK-1-4 Inhibitor I 0.032 | ibrutinib 0.025 | [10] 0.024 | ralimetinib 0.02 | [11] -0.019 | [12] 0.061 | [13] 0.033 | pinometostat -0.041 | [14] 0.022 | [15] 0.034

Continued:

ACACA isoform 4 (UniProt Q13085)
inactive: erlotinib 0.062 | [1] 0.065 | [2] -0.138 | [3] -0.018 | [4] 0.105 | [5] -0.053 | [6] 0.099 | [7] 0.037 | [8] -0.079 | [9] -0.172 | IRAK-1-4 Inhibitor I -0.132 | ibrutinib -0.061 | [10] 0.047 | ralimetinib 0.14 | [11] -0.01 | [12] -0.3 | [13] 0.062 | pinometostat 0.281 | [14] -0.018 | [15] -0.017

ABCB7 isoform 2 (UniProt O75027)
inactive: erlotinib -0.028 | [1] 0.014 | [2] 0.089 | [3] -0.035 | [4] 0.044 | [5] 0.023 | [6] 0.11 | [7] -0.007 | [8] 0.012 | [9] 0.062 | IRAK-1-4 Inhibitor I 0.057 | ibrutinib -0.028 | [10] -0.02 | ralimetinib -0.058 | [11] -0.038 | [12] 0.005 | [13] -0.011 | pinometostat 0.03 | [14] 0.006 | [15] 0.009

ABCC1 (UniProt P33527)
inactive: erlotinib 0 | [1] 0.059 | [2] 0.017 | [3] 0.048 | [4] 0.001 | [5] 0.05 | [6] 0.03 | [7] -0.038 | [8] -0.027 | [9] 0.05 | IRAK-1-4 Inhibitor I 0.033 | ibrutinib 0.036 | [10] -0.005 | ralimetinib -0.037 | [11] 0.032 | [12] 0.135 | [13] -0.008 | pinometostat 0.007 | [14] -0.005 | [15] 0.008

ADAMTSL4 isoform 3 (UniProt Q6UY14)
inactive: erlotinib -0.025 | [1] -0.006 | [2] -0.245 | [3] -0.015 | [4] -0.04 | [5] -0.013 | [6] -0.012 | [7] -0.031 | [8] 0.013 | [9] -0.178 | IRAK-1-4 Inhibitor I -0.024 | ibrutinib 0.074 | [10] 0.032 | ralimetinib 0.095 | [11] 0.049 | [12] 0.093 | [13] 0.028 | pinometostat 0.094 | [14] 0.123 | [15] -0.066

ABCF2 isoform 2 (UniProt Q9UG63)
inactive: erlotinib -0.005 | [1] -0.007 | [2] -0.023 | [3] 0.011 | [4] 0.02 | [5] -0.005 | [6] -0.039 | [7] -0.008 | [8] 0.017 | [9] -0.011 | IRAK-1-4 Inhibitor I -0.006 | ibrutinib -0.003 | [10] 0.02 | ralimetinib -0.017 | [11] -0.065 | [12] -0.038 | [13] 0.016 | pinometostat 0.014 | [14] -0.043 | [15] 0.143
